# According to US10702592B2, “Peptides and combination of peptides for use in immunotherapy against NHL and other cancers” (Immatics Biotechnologies GmbH, priority 2016, dated 2020):
# Tests used:
# [1] = tested on: other tumor types (tumor samples vs normal tissues); assay: LC-MS detection / over-presentation of peptides on additional tumor types; design: species or system human; conditions: for Other relevant organs/diseases: additional tumor types on which the peptide was found: over-presented on more than 5% of measured tumor samples, or presented on more than 5% with ratio of geometric means tumor vs normal tissues larger than 3; for Other relevant organs / diseases (additional tumor types with over-presentation): over-presented on >5% of measured tumor samples, or presented on >5% with ratio of geometric means tumor vs normal >3
# [2] = tested on: NHL samples; assay: Identification and label-free LC-MS quantitation of HLA-presented peptides: presentation profile/score, NHL vs normal tissues; design: species or system human; key: very highly over-presented on tumors compared to a panel of normal tissues (+++); highly over-presented on tumors compared to a panel of normal tissues (++); over-presented on tumors compared to a panel of normal tissues (+); conditions: NHL tumors compared to a panel of normal tissues
Substance,Other relevant organs/diseases [1],Other relevant organs / diseases (additional tumor types with over-presentation) [1],Peptide Presentation [2]
33 (LLANIVPIAMLV; listed as Homo sapiens) [compound 33],CLL,Melanoma,+++
98 (MLQDGIARL; listed as Homo sapiens) [compound 98],"CLL, Melanoma",,+++
214 (FLFDGSMSL; listed as Homo sapiens) [compound 214],AML,Urinary Bladder Cancer,++
26 (FLGSFIDHV; listed as Homo sapiens) [compound 26],"Melanoma, OC, Uterine Cancer","SCLC, AML",+++
182 (LLPPPPPVA; listed as Homo sapiens) [compound 182],"SCLC, CLL, Melanoma",HNSCC,+
80 (YLFDEIDQA; listed as Homo sapiens) [compound 80],"CLL, AML, Uterine Cancer",,+++
90 (HLDEVFLEL; listed as Homo sapiens) [compound 90],SCLC,,+++
96 (LLLNENESLFL; listed as Homo sapiens) [compound 96],"HCC, CLL, BRCA, Melanoma, OC, Uterine Cancer",HNSCC,+++
10 (FLLVGTQIDL; listed as Homo sapiens) [compound 10],"CLL, BRCA, Uterine Cancer",,+++
71 (VLLDYVGNVQL; listed as Homo sapiens) [compound 71],,HNSCC,+++
79 (AMKEEKEQL; listed as Homo sapiens) [compound 79],AML,,+++
87 (GLFARIIMI; listed as Homo sapiens) [compound 87],"Gallbladder Cancer, Bile Duct Cancer",,+++
264 (ILTGTPPGV; listed as Homo sapiens) [compound 264],BRCA,,+++
25 (FLDTSNQHLL; listed as Homo sapiens) [compound 25],CLL,,+++
294 (KLYGPEGLELV; listed as Homo sapiens) [compound 294],CLL,,+
188 (GLEDEMYEV; listed as Homo sapiens) [compound 188],"CLL, Melanoma, Uterine Cancer, Gallbladder Cancer, Bile Duct Cancer",HNSCC,++
122 (AISEAQESV; listed as Homo sapiens) [compound 122],"RCC, CLL, BRCA, Uterine Cancer",HNSCC,+
220 (FLAEAPTAL; listed as Homo sapiens) [compound 220],,AML,++
227 (IIAEGIPEA; listed as Homo sapiens) [compound 227],"SCLC, CLL, Melanoma, Uterine Cancer","RCC, HNSCC",+
168 (SLLSPLLSV; listed as Homo sapiens) [compound 168],,HNSCC,+++
131 (VLIEETDQL; listed as Homo sapiens) [compound 131],"CLL, Melanoma",BRCA,+++
242 (GILDFZVFL; listed as Homo sapiens) [compound 242],AML,,+
93 (KLLGSLQLL; listed as Homo sapiens) [compound 93],"RCC, BRCA",,+++
204 (RLCDIVVNV; listed as Homo sapiens) [compound 204],Melanoma,,+++
215 (QLFEEEIEL; listed as Homo sapiens) [compound 215],"RCC, Esophageal Cancer, OC, Uterine Cancer, Gallbladder Cancer, Bile Duct Cancer",,+
149 (ILNPVTTKL; listed as Homo sapiens) [compound 149],AML,,+++

Substance,Other relevant organs/diseases [1],Other relevant organs / diseases (additional tumor types with over-presentation) [1],Peptide Presentation [2]
213 (YINEDEYEV; listed as Homo sapiens) [compound 213],"CLL, OC",HNSCC,+
77 (ALLDVSNNYGI; listed as Homo sapiens) [compound 77],"HCC, CLL, Esophageal Cancer, OC, Urinary bladder cancer",,+++
110 (YQYPFVLGL; listed as Homo sapiens) [compound 110],Uterine Cancer,HNSCC,+++
81 (FIFSYITAV; listed as Homo sapiens) [compound 81],CLL,,+++
30 (ILSTLDVEL; listed as Homo sapiens) [compound 30],"CRC, Melanoma, Uterine Cancer","SCLC, Urinary Bladder Cancer, Gallbladder Cancer, Bile Duct Cancer, AML, HNSCC",+++
94 (LLAGQATTAYF; listed as Homo sapiens) [compound 94],RCC,,+++
287 (ILMGHSLYM; listed as Homo sapiens) [compound 287],"Gallbladder Cancer, Bile Duct Cancer",,++
179 (FVDTNLYFL; listed as Homo sapiens) [compound 179],"RCC, CLL, Melanoma, Uterine Cancer",AML,+++
257 (FLQEWEVYA; listed as Homo sapiens) [compound 257],"CLL, AML, Melanoma, Urinary bladder cancer",,+++
78 (AMEEAVAQV; listed as Homo sapiens) [compound 78],"RCC, Gallbladder Cancer, Bile Duct Cancer",,+++
54 (DIFDAMFSV; listed as Homo sapiens) [compound 54],,CLL,+++
95 (LLFDLIPVVSV; listed as Homo sapiens) [compound 95],"AML, BRCA, Uterine Cancer",HNSCC,+++
27 (FLNQESFDL; listed as Homo sapiens) [compound 27],"CLL, BRCA, Esophageal Cancer, Urinary bladder cancer, Uterine Cancer",,+++
219 (ALLELENSV; listed as Homo sapiens) [compound 219],"HCC, Uterine Cancer, Gallbladder Cancer, Bile Duct Cancer",,+++
148 (ICAGHVPGV; listed as Homo sapiens) [compound 148],"AML, Uterine Cancer",,+++
232 (KVMEGTVAA; listed as Homo sapiens) [compound 232],CLL,,++
161 (NLMLELETV; listed as Homo sapiens) [compound 161],Uterine Cancer,,+++
28 (FLSNANPSL; listed as Homo sapiens) [compound 28],"CLL, BRCA, Uterine Cancer","SCLC, HNSCC",+++
256 (ALQETPPQV; listed as Homo sapiens) [compound 256],,AML,+++
99 (QLYDGATALFL; listed as Homo sapiens) [compound 99],,HNSCC,+++
37 (VLGNALEGV; listed as Homo sapiens) [compound 37],"HCC, CLL, AML, Urinary bladder cancer, Uterine Cancer",SCLC,+++
292 (KLINSQISL; listed as Homo sapiens) [compound 292],CLL,AML,++
255 (GMWNPNAPVFL; listed as Homo sapiens) [compound 255],"HCC, CLL, Uterine Cancer",HNSCC,+++
9 (FLLDLDPLL; listed as Homo sapiens) [compound 9],CLL,,+++
2 (LLSEETPSA; listed as Homo sapiens) [compound 2],"NSCLC, SCLC, CLL, AML, BRCA, Melanoma, Urinary bladder cancer, Uterine Cancer",HNSCC,+++
